Source: patent publication US20130336951A1
Results are given in words; binding and its absence hold for the method and conditions named. For some of these results: Binding seen in cells or lysates may run through a third protein. Some binding calls cover weakened binding; strength is not graded here.

By UniProt entry, the sequences of proteins in these tests, tags left out. Where a name states a change or a piece, a line headed by the entry shows the natural chain unless it says otherwise. Chains listed by the source or under a name are the forms on record and can include a tag or linker. Residues count along the entry.
UniProt P04406, residues 2-335: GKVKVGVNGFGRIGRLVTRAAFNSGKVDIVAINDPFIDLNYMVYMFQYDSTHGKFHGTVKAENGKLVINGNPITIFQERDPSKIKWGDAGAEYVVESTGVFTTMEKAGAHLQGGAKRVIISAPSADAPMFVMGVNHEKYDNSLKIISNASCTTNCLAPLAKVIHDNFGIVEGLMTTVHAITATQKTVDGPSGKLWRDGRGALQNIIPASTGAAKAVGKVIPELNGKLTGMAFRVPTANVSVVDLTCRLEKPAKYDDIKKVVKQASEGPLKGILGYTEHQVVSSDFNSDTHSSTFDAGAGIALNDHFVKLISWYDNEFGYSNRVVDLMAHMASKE
UniProt Q9JM53, residues 102-612: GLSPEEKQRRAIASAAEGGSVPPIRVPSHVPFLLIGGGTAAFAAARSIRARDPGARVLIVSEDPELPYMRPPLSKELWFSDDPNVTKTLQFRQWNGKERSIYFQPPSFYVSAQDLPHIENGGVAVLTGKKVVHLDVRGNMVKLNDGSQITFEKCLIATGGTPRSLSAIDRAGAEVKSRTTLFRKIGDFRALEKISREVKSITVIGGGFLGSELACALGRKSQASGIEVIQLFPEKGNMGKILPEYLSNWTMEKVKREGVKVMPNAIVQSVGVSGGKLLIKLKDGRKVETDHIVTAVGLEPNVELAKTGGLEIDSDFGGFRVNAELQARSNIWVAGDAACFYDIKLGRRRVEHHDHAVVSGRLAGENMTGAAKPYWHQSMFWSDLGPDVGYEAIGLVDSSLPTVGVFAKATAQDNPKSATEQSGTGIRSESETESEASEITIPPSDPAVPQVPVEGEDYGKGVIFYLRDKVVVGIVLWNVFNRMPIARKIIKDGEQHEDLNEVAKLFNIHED
UniProt P10361: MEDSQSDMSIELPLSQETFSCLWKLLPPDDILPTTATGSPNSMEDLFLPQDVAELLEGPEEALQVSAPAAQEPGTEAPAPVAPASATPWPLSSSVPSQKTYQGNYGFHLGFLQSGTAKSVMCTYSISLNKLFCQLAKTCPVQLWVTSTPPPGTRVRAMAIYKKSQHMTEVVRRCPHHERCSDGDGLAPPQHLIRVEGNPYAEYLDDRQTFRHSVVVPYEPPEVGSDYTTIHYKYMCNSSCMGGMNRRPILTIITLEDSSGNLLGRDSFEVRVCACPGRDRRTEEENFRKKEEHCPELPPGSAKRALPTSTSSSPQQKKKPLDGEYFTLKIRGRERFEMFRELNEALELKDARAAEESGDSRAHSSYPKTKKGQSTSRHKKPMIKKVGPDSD
UniProt P19491: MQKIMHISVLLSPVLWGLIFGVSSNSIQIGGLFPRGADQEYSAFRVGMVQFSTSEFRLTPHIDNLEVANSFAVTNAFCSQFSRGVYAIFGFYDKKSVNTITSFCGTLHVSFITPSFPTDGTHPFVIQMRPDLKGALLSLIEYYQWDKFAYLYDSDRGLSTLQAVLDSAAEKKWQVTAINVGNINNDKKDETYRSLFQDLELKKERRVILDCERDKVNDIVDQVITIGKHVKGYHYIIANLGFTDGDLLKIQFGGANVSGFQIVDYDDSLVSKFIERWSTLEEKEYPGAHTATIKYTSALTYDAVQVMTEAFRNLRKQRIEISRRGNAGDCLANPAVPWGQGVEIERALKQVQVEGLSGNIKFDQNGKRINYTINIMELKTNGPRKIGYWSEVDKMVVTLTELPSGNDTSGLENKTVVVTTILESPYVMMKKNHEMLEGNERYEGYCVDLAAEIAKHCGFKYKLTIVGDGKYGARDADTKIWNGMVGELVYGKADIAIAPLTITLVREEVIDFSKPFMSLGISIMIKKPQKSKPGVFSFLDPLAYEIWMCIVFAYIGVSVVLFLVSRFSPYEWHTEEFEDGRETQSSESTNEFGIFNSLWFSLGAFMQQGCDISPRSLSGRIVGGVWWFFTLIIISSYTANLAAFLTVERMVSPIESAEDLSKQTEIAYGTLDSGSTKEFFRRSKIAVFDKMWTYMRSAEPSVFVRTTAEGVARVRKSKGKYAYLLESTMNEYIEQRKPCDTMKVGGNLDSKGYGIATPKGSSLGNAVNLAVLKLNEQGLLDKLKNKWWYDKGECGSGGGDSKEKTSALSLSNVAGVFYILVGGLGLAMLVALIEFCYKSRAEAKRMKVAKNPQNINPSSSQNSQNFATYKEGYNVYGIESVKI
GST-GluR2 NTa (V22-S271): residues 22-271 of P19491
GST-GluR2NT1-3 (H122-K172): residues 122-172 of P19491
GST-GluR2 NTa3 (H122-K171): residues 122-171 of P19491
GluR2-M2 171-172 KK->AA (P19491, form named): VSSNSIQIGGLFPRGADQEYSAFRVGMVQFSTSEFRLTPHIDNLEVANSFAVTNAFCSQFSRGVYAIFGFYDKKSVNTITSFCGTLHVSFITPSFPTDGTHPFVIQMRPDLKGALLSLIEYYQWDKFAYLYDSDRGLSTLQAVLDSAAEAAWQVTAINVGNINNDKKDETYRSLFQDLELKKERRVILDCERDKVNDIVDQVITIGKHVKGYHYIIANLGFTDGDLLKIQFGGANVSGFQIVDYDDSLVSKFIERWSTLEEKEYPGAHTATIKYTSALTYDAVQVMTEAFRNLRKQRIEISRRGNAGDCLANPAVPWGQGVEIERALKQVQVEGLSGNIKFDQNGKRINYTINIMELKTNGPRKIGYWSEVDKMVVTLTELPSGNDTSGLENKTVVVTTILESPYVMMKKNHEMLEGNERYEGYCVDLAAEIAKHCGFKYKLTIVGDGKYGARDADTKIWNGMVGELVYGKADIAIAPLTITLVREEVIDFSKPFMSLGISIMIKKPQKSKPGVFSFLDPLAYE
GluR2-M3 187-188 KK->AA (P19491, form named): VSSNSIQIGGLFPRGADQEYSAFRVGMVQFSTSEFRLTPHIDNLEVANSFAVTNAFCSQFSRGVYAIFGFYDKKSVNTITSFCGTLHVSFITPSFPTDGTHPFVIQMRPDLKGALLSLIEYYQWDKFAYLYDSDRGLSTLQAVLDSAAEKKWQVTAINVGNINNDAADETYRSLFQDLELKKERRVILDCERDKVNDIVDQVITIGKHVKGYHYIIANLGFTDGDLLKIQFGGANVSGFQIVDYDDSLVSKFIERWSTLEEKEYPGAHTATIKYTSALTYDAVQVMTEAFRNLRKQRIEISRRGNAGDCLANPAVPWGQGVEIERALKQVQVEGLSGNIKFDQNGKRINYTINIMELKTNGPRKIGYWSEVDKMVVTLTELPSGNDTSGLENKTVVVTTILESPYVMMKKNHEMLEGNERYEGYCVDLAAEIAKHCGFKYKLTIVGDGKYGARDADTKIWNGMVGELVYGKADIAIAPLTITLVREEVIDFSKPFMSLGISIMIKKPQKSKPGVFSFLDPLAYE
GluR2-M1 94-95 KK->AA (P19491, form named): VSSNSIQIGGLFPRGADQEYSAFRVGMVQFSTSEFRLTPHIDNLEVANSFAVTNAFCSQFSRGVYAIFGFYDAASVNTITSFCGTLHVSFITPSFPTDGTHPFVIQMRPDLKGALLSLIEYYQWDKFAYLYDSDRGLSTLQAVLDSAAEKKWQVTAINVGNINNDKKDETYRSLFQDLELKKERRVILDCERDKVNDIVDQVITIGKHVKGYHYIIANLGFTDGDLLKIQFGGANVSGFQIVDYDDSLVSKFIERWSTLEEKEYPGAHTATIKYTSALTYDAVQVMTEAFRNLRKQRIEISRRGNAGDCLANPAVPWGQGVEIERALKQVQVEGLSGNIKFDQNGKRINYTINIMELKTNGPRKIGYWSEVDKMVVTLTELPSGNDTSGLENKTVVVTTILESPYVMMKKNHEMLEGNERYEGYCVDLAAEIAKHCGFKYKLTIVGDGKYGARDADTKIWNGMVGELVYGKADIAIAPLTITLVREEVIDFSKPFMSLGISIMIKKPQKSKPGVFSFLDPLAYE

Assays:
[1] = target: GAPDH endogenous to HEK293T cells (UniProt P04406); assay: immunoprecipitation (FIG. 26E)
[2] = target: GAPDH endogenous to HEK293T cells (UniProt P04406); assay: co-immunoprecipitation, HEK-293T cells (FIG. 21B)
[3] = target: GAPDH endogenous to HEK293T cells (UniProt P04406); assay: co-immunoprecipitation, HEK-293T cells expressing GluR1/2 (FIG. 21B)
[4] = target: GAPDH endogenous to HEK293T cells (UniProt P04406); assay: co-immunoprecipitation, transfected HEK293T cells (FIG. 8)
[5] = target: GAPDH endogenous to HEK293T cells (UniProt P04406); assay: co-immunoprecipitation, transfected HEK 293T cells (FIG. 7)
[6] = target: GAPDH endogenous to HEK293T cells (UniProt P04406); assay: co-immunoprecipitation, transfected HEK 293T cells (FIG. 9)
[7] = target: GAPDH endogenous to HEK293T cells (UniProt P04406); assay: co-immunoprecipitation, HEK293T cells co-expressing GluR1 and GluR2
[8] = target: GAPDH endogenous to HEK293T cells (UniProt P04406); assay: co-immunoprecipitation, transfected HEK 293T cells, with glutamate and CNQX (FIG. 8)
[9] = target: Apoptosis inducing factor (AIF) from rat hippocampal extracts (rat) (UniProt Q9JM53); assay: GST pull-down, Western blot for AIF
[10] = target: Apoptosis inducing factor (AIF) from rat hippocampal extracts (rat) (UniProt Q9JM53); assay: GST pull-down from rat hippocampal extracts, Western blot (FIG. 20B)
[11] = target: p53, endogenous protein of rat hippocampus (rat) (UniProt P10361); assay: GST pull-down, Western blot (FIG. 24A)
[12] = target: GAPDH endogenous to HEK293T cells (UniProt P04406); assay: GST pull-down from HEK-293T nuclear extracts (FIG. 24C)
[13] = target: GST-GluR2 NT1-3-2 (Y142-K172); assay: in vitro binding assay (FIG. 6C)
[14] = target: GST-GluR2NT1-3 (H122-K172) (UniProt P19491); assay: in vitro binding assay (FIG. 6K)
[15] = target: GST-GluR2 NT1-3-2 (Y142-K172); assay: in vitro binding assay (FIG. 6L)
[16] = target: GST-GluR2 NTa (V22-S271) (UniProt P19491); assay: in vitro binding assay (FIG. 6J)
[17] = target: GST-GluR2 NTa (V22-S271) (UniProt P19491); assay: in vitro binding assay (FIG. 4C)
[18] = target: GST-GluR2 NT1-3-2 (Y142-K172); assay: repeated in vitro binding assay
[19] = target: GST-GluR2 NTa (V22-S271) (UniProt P19491); assay: repeated in vitro binding assay
[20] = target: GST-GluR2NT1-3 (H122-K172) (UniProt P19491); assay: repeated in vitro binding assay
[21] = target: GST-GluR2 NTa3 (H122-K171) (UniProt P19491); assay: in vitro binding assay (FIG. 5C)
[22] = target: GST-GluR2 NT1-3-2 (Y142-K172); assay: blot overlay with in vitro translated probe
[23] = target: GST-GluR2 NTa (V22-S271) (UniProt P19491); assay: blot overlay with in vitro translated probe
[24] = target: GST-GluR2 NTa3 (H122-K171) (UniProt P19491); assay: blot overlay with in vitro translated probe
[25] = target: p53 of HEK-293T cells (UniProt P04637); assay: co-immunoprecipitation from nuclear proteins (FIG. 24B)

Measured: binding

GluR2-M2 171-172 KK->AA (from UniProt P19491 22-545) (receptor)
binds: [1]

GluR2NT wild type (FIG. 26E) (from UniProt P19491 22-545) (receptor)
binds: [1]

GluR2 subunit expressed in HEK-293T cells together with GluR1 (from UniProt P19491 22-883) (receptor)
binds: [2] | [3] | [4] | [5] | [6] | [7] | [8]

GST-GAPDH (from UniProt P04406 1-335)
binds: [9] | [10] | [11]

GluR2-M3 187-188 KK->AA (from UniProt P19491 22-545) (receptor)
binds: [1]

GluR2-M1 94-95 KK->AA (from UniProt P19491 22-545) (receptor)
binds: [1]

GST-GluR2NT (V22-E545) (from UniProt P19491 22-545)
binds: [12]

[35S]-GAPDH probe (in vitro translated, [35S]-methionine labelled GAPDH) (from UniProt P04406 1-335) (enzyme)
binds: [13] | [14] | [15] | [16] | [17] | [18] | [19] | [20] | [21] | [22] | [23] | [24]

GAPDH endogenous to HEK293T cells (from UniProt P04406 2-335) (enzyme)
binds: [25]
